These are yes or no findings as the source states them, for the method shown. Binding seen in cells or lysates may run through a third protein. Some entries that bind do so weakly or less than the wild type. Sequences can lack the tags named with a protein.

The target of this assay is T1, flag-tagged full-length Vascular Adhesion Protein-1 (VAP-1) (human) (UniProt Q16853).
T1 sequence: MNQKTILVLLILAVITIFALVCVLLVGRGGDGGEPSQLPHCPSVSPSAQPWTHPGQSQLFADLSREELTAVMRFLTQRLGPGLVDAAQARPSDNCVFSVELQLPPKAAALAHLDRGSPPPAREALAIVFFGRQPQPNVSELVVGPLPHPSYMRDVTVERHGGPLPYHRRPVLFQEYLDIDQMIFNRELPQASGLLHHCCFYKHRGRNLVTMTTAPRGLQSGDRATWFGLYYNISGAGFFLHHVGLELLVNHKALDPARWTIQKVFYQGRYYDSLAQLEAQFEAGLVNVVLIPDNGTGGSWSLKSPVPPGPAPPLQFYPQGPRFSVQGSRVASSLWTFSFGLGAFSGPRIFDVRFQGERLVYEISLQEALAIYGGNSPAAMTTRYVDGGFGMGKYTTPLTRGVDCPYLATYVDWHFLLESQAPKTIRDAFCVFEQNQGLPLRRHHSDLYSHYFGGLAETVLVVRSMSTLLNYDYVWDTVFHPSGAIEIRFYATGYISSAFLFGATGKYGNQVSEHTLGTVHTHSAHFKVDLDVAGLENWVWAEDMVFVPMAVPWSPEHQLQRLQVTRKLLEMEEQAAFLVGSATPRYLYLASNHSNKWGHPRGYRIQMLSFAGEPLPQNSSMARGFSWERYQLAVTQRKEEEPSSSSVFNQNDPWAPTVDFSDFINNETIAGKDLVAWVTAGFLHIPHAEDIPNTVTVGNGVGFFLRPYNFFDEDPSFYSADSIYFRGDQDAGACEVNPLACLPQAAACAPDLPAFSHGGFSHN
Nature of the assay: co-IP; HEK293 cells co-transfected with flag-VAP-1 and myc-VAP-1Δ3; lysis buffer 50 mM Tris-HCl, 150 mM NaCl, 1% Nonidet P-40; precipitated with anti-flag mAb M2 on Protein G beads, 1 h at +4°C; blotted with anti-myc.

B1: myc-tagged VAP-1Δ3 (alternatively spliced shorter isoform of VAP-1 lacking exon 3) (protein, UniProt Q16853-2 1-634)
chain: MNQKTILVLLILAVITIFALVCVLLVGRGGDGGEPSQLPHCPSVSPSAQPWTHPGQSQLFADLSREELTAVMRFLTQRLGPGLVDAAQARPSDNCVFSVELQLPPKAAALAHLDRGSPPPAREALAIVFFGRQPQPNVSELVVGPLPHPSYMRDVTVERHGGPLPYHRRPVLFQEYLDIDQMIFNRELPQASGLLHHCCFYKHRGRNLVTMTTAPRGLQSGDRATWFGLYYNISGAGFFLHHVGLELLVNHKALDPARWTIQKVFYQGRYYDSLAQLEAQFEAGLVNVVLIPDNGTGGSWSLKSPVPPGPAPPLQFYPQGPRFSVQGSRVASSLWTFSFGLGAFSGPRIFDVRFQGERLVYEISLQEALAIYGGNSPAAMTTRYVDGGFGMGKYTTPLTRGVDCPYLATYVDWHFLLESQAPKTIRDAFCVFEQNQGLPLRRHHSDLYSHYFGGLAETVLVVRSMSTLLNYDYVWDTVFHPSGAIEIRFYATGYISSAFLFGATGKYGNQVSEHTLGTVHTHSAHFKVDLDVAGLENWVWAEDMVFVPMAVPWSPEHQLQRLQVTRKLLEMEEQAAFLVGSATPRYLYLASNHSNKWGHPRGYRIQMLSFAGEPLPQNSSMARGFSWERIWWPG
Turning to B1, the binding entry is “binds”.

The values are drawn from publication PMC3548902.
